Test systems include LOC170425 (human); LOC201725 (human); LOC202459 (human); LOC284134 (human); LOC285141 (human); LOC286208 (human); LOC388589 (human); LOC400600 (human); LOC401169 (human); LOC401270 (human); LOC401607 (human); LOC442582 (human); LOC51233 (human); LOC51252 (human); LOC541471 (human); LOC554203 (human); LOC554207 (human); LOC57228 (human); LOH12CR1 (human).
Experiment in all cases: protein microarray (ProtoArray v5.0), streptavidin-Alexa Fluor 647
Details in all cases: 3'-biotin; 20 mM Tris (pH 7.5), 5 mM MgCl2, 100 mM KCl, 0.1% Tween-20, A/T-rich and random oligonucleotide blockers; temperature not stated; high values mean tight binding

The test system of test [1] is LOC153684 protein (human).

These results are taken from article PMC5996148.

The other results are listed elsewhere or left out.

As to “GGGGACAGGGGTATGGGGAGGGG [G4-3 biotinylated (CtG)]”, the binding signal is 4.46 z-score in test [1]; -0.316 z-score in the test with LOC170425 (human); -0.327 z-score in the test with LOC201725 (human); -0.314 z-score in the test on LOC202459 (human); -0.31 z-score in the test on LOC284134 (human); -0.318 z-score with LOC285141 (human). In addition, the binding signal with LOC286208 (human) was -0.317 z-score; in the test with LOC388589 (human) it was -0.311 z-score; with LOC400600 (human), -0.325 z-score; with LOC401169 (human), -0.303 z-score; in the test on LOC401270 (human) it was -0.321 z-score; with LOC401607 (human), -0.319 z-score. Also, the binding signal with LOC442582 (human) is -0.328 z-score; in the test with LOC51233 (human) it was -0.323 z-score; in the test with LOC51252 (human) it was -0.324 z-score; in the test with LOC541471 (human), -0.338 z-score; in the test on LOC554203 (human), -0.337 z-score; with LOC554207 (human), -0.306 z-score. The binding signal with LOC57228 (human) was 4.59 z-score; in the test on LOH12CR1 (human), -0.323 z-score.
